Experiment [1] addresses T1, GST-Bni5-Ext-HR2 (GST-Bni5(306-393)) (S. cerevisiae) (UniProt P53890).
T1 sequence: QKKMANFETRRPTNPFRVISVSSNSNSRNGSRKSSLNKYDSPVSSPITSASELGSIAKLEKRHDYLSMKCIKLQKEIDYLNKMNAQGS
The experiment is described as follows: pull-down; 3.5 μg GST fusion on glutathione resin with 3.5 μg His6-Sumo-Elm1-C or MBP-Myo1-mTD1; 20 mM MOPS pH 7.0, 1 mM EGTA, 150 mM NaCl, 1 mM DTT, 0.1% NP-40; 1 h; five washes; Coomassie gel and anti-6xHis or anti-MBP blot; both purified.

Experiment [2] deals with T2, GST-Bni5-HR2-HR3 (GST-Bni5(340-448)) (S. cerevisiae) (UniProt P53890).
T2 sequence: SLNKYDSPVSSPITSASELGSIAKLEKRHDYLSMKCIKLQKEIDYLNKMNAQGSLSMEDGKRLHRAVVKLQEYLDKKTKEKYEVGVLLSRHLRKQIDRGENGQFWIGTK
The description is as above.

The target in experiment [3] is T3, His6-Cdc12 (S. cerevisiae) (UniProt P32468).
T3 sequence: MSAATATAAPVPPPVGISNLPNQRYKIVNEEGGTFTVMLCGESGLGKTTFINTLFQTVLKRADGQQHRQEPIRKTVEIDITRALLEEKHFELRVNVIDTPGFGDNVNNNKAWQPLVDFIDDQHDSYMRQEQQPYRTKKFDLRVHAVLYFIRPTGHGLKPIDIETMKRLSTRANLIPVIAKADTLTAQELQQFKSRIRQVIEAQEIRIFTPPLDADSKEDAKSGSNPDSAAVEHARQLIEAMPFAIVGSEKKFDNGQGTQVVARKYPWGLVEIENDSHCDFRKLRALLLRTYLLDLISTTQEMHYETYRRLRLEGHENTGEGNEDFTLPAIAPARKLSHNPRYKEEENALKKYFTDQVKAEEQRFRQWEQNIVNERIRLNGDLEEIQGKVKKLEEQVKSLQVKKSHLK
The experiment is described as follows: pull-down; co-purification: septins co-expressed in E. coli BL21(DE3), complexes held on His-tag resin through His6-Cdc12 in 300 mM NaCl buffer, eluted with imidazole; Coomassie gel, anti-Shs1 blot.

Here are results for four molecules from publication PMC12591035, “Bni5 regulates and coordinates septin architecture and myosin-II functions at the cell division site” (The Journal of Cell Biology, 2025).

No constants are given. Whether binding was seen depends on the method and setting. For some assays here: Binding seen in cells or lysates may run through a third protein. Some binding calls cover weakened binding; strength is not graded here. Tags and fused reporters may be left off the sequences shown.

B1: His-SUMO-Elm1(421-640) (domain or fragment, UniProt P32801 421-640)
chain: SSSSVNPVRNEGPVRRFFGRLLTKKGKKKTSGKGKDKVLVSATSKVTPSIHIDEEPDKECFSTTVLRSSPDSSDYCSSLGEEAIQVTDFLDTFCRSNESLPNLTVNNDKQNSDMKTDRSESSSHSSLKIPTPIKAMIRLKSSPKENGNRTHINCSQDKPSSPLMDRTVGKRTVNNSGARKLAHSSNILNFKAYINSEDSDIRETVEDVKTYLNFADNGQI
With B1, the binding entry in experiment [1] and in experiment [2] was “binds weakly” each time.

B2: Shs1 (protein, UniProt Q07657 1-551)
chain: MSTASTPPINLFRRKKEHKRGITYTMLLCGPAGTGKTAFANNLLETKIFPHKYQYGKSNASISSNPEVKVIAPTKVVSFNSKNGIPSYVSEFDPMRANLEPGITITSTSLELGGNKDQGKPEMNEDDTVFFNLIMTHGIGENLDDSLCSEEVMSYLEQQFDIVLAEETRIKRNPRFEDTRVHVALYFIEPTGHGLREVDVELMKSISKYTNVLPIITRADSFTKEELTQFRKNIMFDVERYNVPIYKFEVDPEDDDLESMEENQALASLQPFAIITSDTRDSEGRYVREYPWGIISIDDDKISDLKVLKNVLFGSHLQEFKDTTQNLLYENYRSEKLSSVANAEEIGPNSTKRQSNAPSLSNFASLISTGQFNSSQTLANNLRADTPRNQVSGNFKENEYEDNGEHDSAENEQEMSPVRQLGREIKQENENLIRSIKTESSPKFLNSPDLPERTKLRNISETVPYVLRHERILARQQKLEELEAQSAKELQKRIQELERKAHELKLREKLINQNKLNGSSSSINSLQQSTRSQIKKNDTYTDLASIASGRD
With B2, the binding result in experiment [3] is “binds”.

B3: Cdc10 (protein, UniProt P25342 1-322)
chain: MDPLSSVQPASYVGFDTITNQIEHRLLKKGFQFNIMVVGQSGLGKSTLINTLFASHLIDSATGDDISALPVTKTTEMKISTHTLVEDRVRLNINVIDTPGFGDFIDNSKAWEPIVKYIKEQHSQYLRKELTAQRERFITDTRVHAILYFLQPNGKELSRLDVEALKRLTEIANVIPVIGKSDTLTLDERTEFRELIQNEFEKYNFKIYPYDSEELTDEELELNRSVRSIIPFAVVGSENEIEINGETFRGRKTRWSAINVEDINQCDFVYLREFLIRTHLQDLIETTSYIHYEGFRARQLIALKENANSRSSAHMSSNAIQR
B3: in experiment [3], the binding result was “binds”.

B4: Cdc3 (protein, UniProt P32457 1-520)
chain: MSLKEEQVSIKQDPEQEERQHDQFNDVQIKQESQDHDGVDSQYTNGTQNDDSERFEAAESDVKVEPGLGMGITSSQSEKGQVLPDQPEIKFIRRQINGYVGFANLPKQWHRRSIKNGFSFNLLCVGPDGIGKTTLMKTLFNNDDIEANLVKDYEEELANDQEEEEGQGEGHENQSQEQRHKVKIKSYESVIEENGVKLNLNVIDTEGFGDFLNNDQKSWDPIIKEIDSRFDQYLDAENKINRHSINDKRIHACLYFIEPTGHYLKPLDLKFMQSVYEKCNLIPVIAKSDILTDEEILSFKKTIMNQLIQSNIELFKPPIYSNDDAENSHLSERLFSSLPYAVIGSNDIVENYSGNQVRGRSYPWGVIEVDNDNHSDFNLLKNLLIKQFMEELKERTSKILYENYRSSKLAKLGIKQDNSVFKEFDPISKQQEEKTLHEAKLAKLEIEMKTVFQQKVSEKEKKLQKSETELFARHKEMKEKLTKQLKALEDKKKQLELSINSASPNVNHSPVPTKKKGFLR
As for B4, in experiment [3], the binding result was “binds”.
